Laboratory results: publication PMC10989010, “A panel of janus kinase inhibitors identified with anti-inflammatory effects protect mice from lethal influenza virus infection” (Antimicrobial Agents and Chemotherapy, 2024)
Counter-ions that a name gives are not always drawn. Like-named read-outs stand apart in the source and are kept apart here.

Legend:
IP-10 = experiment: cells; type: cell-based, human; conditions: read-out: IC50 IP-10
IL-8 = experiment: U937 cell-based anti-inflammatory assay for influenza virus infection, IL-8 production (AlphaLISA); set-up: species or system human; conditions: read-out: IC50 IL-8, U937 cells infected with PR8 virus, 72 hours, mean of three independent experiments
Procedure: U937 cells were seeded in a 96-well culture plate at a density of 1.5 × 10^5 cells per well and incubated for 24 hours prior to virus infection. Subsequently, the cells in each well were infected with the PR8 virus at a multiplicity of infection of 0.05 and treated with serially diluted drugs or left untreated as a control. The drugs were serially diluted threefold, starting from an initial concentration of 200 µM down to 0.01 µM. […] Following this incubation, the supernatants were collected and subjected to AlphaLISA analysis to determine IL-8, IP-10, and MCP1 protein levels.
The AlphaLISA detection kits employed in this study were IL-8 (PerkinElmer AL224), IP-10 (PerkinElmer AL259), and MCP1 (PerkinElmer, AL244). U937 cell culture supernatants were measured for IL-8, IP-10, and MCP-1 protein levels using AlphaLISA assay as per the manufacturer’s recommendations. The ELISA and AlphaLISA plates were read using the Varioskan LUX multimode microplate reader (Thermo Scientiﬁc, Waltham, MA, USA).

MCP1 = experiment: cells; type: cell-based, human; conditions: read-out: IC50 MCP1

Structure (SMILES) | IC50 (IP-10) [µM] | IC50 (IL-8) [µM] | IC50 (MCP1) [µM] | IC50 (IP-10; Homo sapiens, U-937, 72 h) [µM] | IC50 (IL-8; Homo sapiens, U-937, 72 h) [µM] | IC50 (MCP1; Homo sapiens, U-937, 72 h) [µM]
C[C@@H]1CCN(C(=O)CC#N)C[C@@H]1N(C)c1ncnc2[nH]ccc12 [Tofacitinib citrate] | 0.04 | 0.02 | 0.04 |  |  | 
C[C@@H]1CCN(C(=O)CC#N)C[C@@H]1N(C)c1ncnc2[nH]ccc12 [Tofacitinib] |  |  |  | 0.02 | 0.01 | 0.05
